# Measured values published in PubChem BioAssay AID504467 (National Center for Advancing Translational Sciences (NCATS), 2011).
# Among all 330,000 compounds or so, about 7,700 (2.3%) were called active. Inconclusive means that the source gave no clear call. Such entries were picked first, then a sample of the others. Calls follow the shape of the dose curve; as a rule, active = well fitted inhibition curve with a large enough effect; inconclusive = small, poorly fitted or top-dose-only effect, or effect the other way; inactive = flat fitted curve, though single readings scatter. A potency beside an inconclusive call is a rough fit, not a confirmed value.
# Experiment: qHTS screen for small molecules that inhibit ELG1-dependent DNA repair in human embryonic kidney (HEK293T) cells expressing luciferase-tagged ELG1; also: nearly all actives have a fitted effect of over 55% in size
# Conditions: HEK293T ELG1-luciferase reporter, luminescence, 16 h, DNA damage induced by 5-fluorouridine; activity change, negative = inhibition: at 46.1 µM (top of the series)
# Procedure, shortened: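 Cells (2,000 per well) received 5-fluorouridine plus test compound or DMSO and were incubated 16 hr at 37 °C, 5% CO2. Luciferase activity was read by luminescence 30 min after ONE-Glo addition; signal suppression marked inhibition of damage-induced ELG1 function.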
# % is scaled to controls: 0 for no effect and ±100 for the full control effect; potency is read from the fitted curve at half-maximal effect.
SMILES,"activity change, negative = inhibition",Potency
COc1ccc(N2C(=O)C(Cl)=C(Oc3cccc(OC)c3)C2=O)cc1,inactive: 3.19%,–
CCCOc1cccc(C2C(C(=O)c3ccc(C)o3)=C(O)C(=O)N2c2nc(C)c(C(C)=O)s2)c1 (centres undefined),inactive: 13.5%,–
O=C(c1ccc2c(c1)OCCO2)N1CCN(c2ncc(C(F)(F)F)cc2Cl)CC1,inactive: -1.27%,–
Cc1ccc(NC(=O)Cn2cnc(C(=O)Nc3ccc(C)c(C)c3)n2)cc1C,–,"inconclusive: 18.3 µM [activator, single point]"
Cc1ccc(/C=N/NC(=O)CN2CCN(S(=O)(=O)c3ccc(Br)cc3)CC2)s1,–,"inconclusive: 13 µM [inhibitor, partial curve, poor fit]"
CC(C)n1cnc2c(NCc3ccccc3)cc(N[C@@H](CO)Cc3ccccc3)cc21,–,active: 16.4 µM
CCOC(=O)c1c(CS(=O)(=O)c2ccccc2)n(C)c2cc(Br)c(O)cc12,–,"inconclusive: 29.1 µM [inhibitor, single point]"
O=C(c1ccco1)N(CC1CCCO1)c1nc(-c2ccccc2)cs1 (centres undefined),–,"inconclusive: 32.6 µM [inhibitor, single point]"
O=C(CCc1nc2ccccc2[nH]c1=O)OCC(=O)c1cccc2ccccc12,–,"inconclusive: 25.9 µM [activator, partial curve, poor fit]"
Cc1nc2c(-c3ccc(Cl)cc3)cnn2c(N)c1-c1ccc(F)cc1,–,"inconclusive: 2.31 µM [activator, full curve]"
O=C(Nc1cccc(N2C(=O)C3C4C=CC(C4)C3C2=O)c1)c1cccs1 (centres undefined),inactive: -15.3%,–
O=C1OC(c2ccco2)=N/C1=C\c1ccc(-c2cccc(C(F)(F)F)c2)o1,inactive: 12.9%,–
O=S(=O)(c1ccc(OCC(O)CN2CCN(c3ccc(F)cc3)CC2)cc1)N1CCOCC1 (centres undefined),–,"inconclusive: 20.6 µM [inhibitor, single point]"
CCn1cc(C(=O)NCc2ccc3c(c2)OCO3)c(=O)c2cc(F)c(N3CCN(C(=O)c4ccco4)CC3)cc21,–,active: 9.2 µM
O=C(NCc1ccco1)c1nc2ccccc2s1,–,"inconclusive: 16.4 µM [activator, partial curve]"
COc1ccc(OC)c(-c2csc(N(CC3CCCO3)C(=O)C3CCCCC3)n2)c1 (centres undefined),–,"inconclusive: 16.4 µM [inhibitor, partial curve, poor fit]"
COc1cccc(/C=N/NC(=O)C(=O)NCc2ccco2)c1O,–,"inconclusive: 6.51 µM [inhibitor, single point]"
Cc1ccsc1/C=N/NC(=O)CN1CCN(S(=O)(=O)c2ccc(Br)cc2)CC1,inactive: -9.33%,–
COc1ccccc1NS(=O)(=O)c1cc(NC(=O)c2cccnc2)ccc1N1CCCCC1,–,active: 18.3 µM
CC1=C(C(=O)OCC2CCCO2)C(c2ccc(C)o2)C2=C(CC(c3ccc(N(C)C)cc3)CC2=O)N1 (centres undefined),–,"inconclusive: 20.6 µM [inhibitor, partial curve, poor fit]"
COc1ccc(-c2cc(=O)oc3cc(OCC(=O)NCCCn4ccnc4)ccc23)cc1,inactive: -11.1%,–
C#CCOc1c(Br)cc(/C=C2/C(=O)ON=C2C)cc1OCC,inactive: 0.983%,–
O=C(Nc1ncccc1Cl)c1cc2ccccc2o1,–,"inconclusive: 4.11 µM [activator, full curve]"

# Individual results from above:
# activity change, negative = inhibition, `O=C1OC(c2ccco2)=N/C1=C\c1ccc(-c2cccc(C(F)(F)F)c2)o1` is entered as inactive: 12.9%
# Potency, `CCn1cc(C(=O)NCc2ccc3c(c2)OCO3)c(=O)c2cc(F)c(N3CCN(C(=O)c4ccco4)CC3)cc21` is entered as active: 9.2 µM
# Potency, `O=C(c1ccco1)N(CC1CCCO1)c1nc(-c2ccccc2)cs1` (centres undefined) is entered as inconclusive: 32.6 µM [inhibitor, single point]

# Next structures follow.

SMILES,"activity change, negative = inhibition",Potency
N#Cc1ccc(NC(=O)COC(=O)CSc2nnc(-c3ccc(Cl)cc3)o2)cc1,–,"inconclusive: 20.6 µM [activator, single point]"
O=C(c1ccco1)N1CCC(c2nc(-c3ccc(F)cc3)no2)CC1,–,"inconclusive: 29.1 µM [inhibitor, single point]"
COc1ccc(CCNC(=O)C23CN(Cc4ccccc4)CC2C(c2ccc([N+](=O)[O-])cc2)=NO3)cc1 (centres undefined),–,"inconclusive: 23.1 µM [inhibitor, partial curve, poor fit]"
COc1ccccc1/C=C\C(=O)NCC(=O)N/N=C(\C)Cc1ccccc1,–,"inconclusive: 1.16 µM [activator, single point]"
CCc1nc2ccccc2n1Cc1ccccc1OC,inactive: 0%,–
CC1Cc2cc(S(=O)(=O)N3CCN(c4ccccc4F)CC3)ccc2N1C(=O)C1CC1 (centres undefined),inactive: -8.02%,–
C[n+]1ccccc1/C=C/c1ccc(C#N)cc1,–,"inconclusive: 0.1 µM [activator, full curve, poor fit]"
CN=C(c1ccc(C)cc1)n1c(=S)nc(-c2ccc(C)cc2)n(C)c1=S,–,"inconclusive: 16.4 µM [activator, single point]"
Cc1cc(N)n(-c2ccccc2)n1,inactive: 14.3%,–
CN1C(C(=O)c2ccccc2)=C(N)c2ccccc2S1(=O)=O,–,"inconclusive: 29.1 µM [activator, partial curve, poor fit]"
CCc1ccc(N=C2NC(=O)/C(=C/c3cc(OC)c(O)c(OC)c3)S2)cc1,–,"inconclusive: 25.9 µM [inhibitor, single point]"
O=C(Nc1nccs1)c1ccc2c(=O)n3c(nc2c1)CCCCC3,–,"inconclusive: 4.11 µM [activator, partial curve]"
CCCCNC(=O)c1onc(CSc2ccc(C)c(C)c2)c1C(=O)O,inactive: 4.97%,–
Cn1c(=O)[nH]c(=O)c2c1nc(N1CCC(Cc3ccccc3)CC1)n2Cc1ccccc1,–,"inconclusive: 29.1 µM [inhibitor, single point]"
O=C(NC(=S)Nc1ccccc1N1CCCCC1)c1ccccc1,inactive: -7.9%,–
COc1ccc(C(C(=O)NCc2ccccc2)N(Cc2ccco2)C(=O)c2snc(C(N)=O)c2N)cc1 (centres undefined),–,active: 20.6 µM
Cc1ccc(S(=O)(=O)Nc2ccncc2)c(C)c1,inactive: 2.4%,–
CN(C)/C=N/c1ncc(C(=O)c2ccccc2)s1,–,"inconclusive: 10.3 µM [activator, partial curve]"
O=C(c1sccc1Br)N1CCN(Cc2ccc3c(c2)OCO3)CC1,–,"inconclusive: 25.9 µM [inhibitor, partial curve, poor fit]"
COc1cc(/C=C/C(=O)OCC(=O)Nc2ccc(S(=O)(=O)N3CCCC3)cc2)ccc1O,–,"inconclusive: 20.6 µM [inhibitor, partial curve, poor fit]"
CN(C)CCNC(=O)c1cc2sc3ccccc3c2s1,–,"inconclusive: 18.3 µM [activator, partial curve]"
CCCn1c(C)cc(/C=C(\C#N)C(=O)OCC(=O)Nc2cccc(S(N)(=O)=O)c2)c1C,–,"inconclusive: 1.03 µM [inhibitor, full curve]"
Cc1ccc(C(=O)NC2=NCCS2)cc1,–,"inconclusive: 8.2 µM [activator, partial curve]"

SMILES,"activity change, negative = inhibition",Potency
N/C(=N\OC(=O)c1ccc([N+](=O)[O-])cc1)c1ccccn1,–,"inconclusive: 1.03 µM [activator, full curve]"
Cc1ccc2c(Cl)c(C(=O)NCC(c3ccco3)N3CCCC3)sc2c1 (centres undefined),–,"inconclusive: 18.3 µM [activator, single point]"
Cc1ccc(Nc2nc(-c3ccccc3)cs2)nc1,–,"inconclusive: 0.58 µM [activator, full curve]"
COc1ccc(/C=C2\N=C(C)OC2=O)cc1OC(C)=O,inactive: 3.51%,–
CCOCCCNC(=O)C(c1ccc(OC)cc1)N(Cc1ccc2c(c1)OCO2)C(=O)c1ccccc1O (centres undefined),inactive: 11.3%,–
COc1ccc(-c2noc(-c3ccccc3C(=O)Nc3cccnc3)n2)cc1,–,"inconclusive: 29.1 µM [inhibitor, single point]"
CCCc1noc(-c2ccc(-c3ccccc3)cc2)n1,–,"inconclusive: 5.17 µM [activator, full curve]"
c1ccc(Cn2nnc3c(N4CCN(Cc5ccc6c(c5)OCO6)CC4)ncnc32)cc1,–,"inconclusive: 20.6 µM [inhibitor, single point]"
CCOC(=O)C(/C=C(\C#N)C(=O)OCC)=C(/N)N1CCN(c2ccccc2)CC1,inactive: 3.89%,–
CNC(=O)c1ccc(N(Cc2ccccc2C)S(C)(=O)=O)cc1,inactive: 5.31%,–
COc1ccc(OC)c(N(CC(=O)NCCSCc2ccco2)S(=O)(=O)c2ccc(OC)c(OC)c2)c1,inactive: -2.13%,–
Cc1cc(C)nc(NC(=O)/C=C/c2ccccc2Cl)c1,–,"inconclusive: 4.11 µM [activator, full curve]"
CCOc1ccc(N2C(=O)C(=O)/C(=C(/O)c3ccccc3)C2c2ccccc2[N+](=O)[O-])cc1 (centres undefined),inactive: -5.98%,–
Cc1ccc(N=C2NC(=O)CS2)cc1,inactive: 3.91%,–
CCc1ccc(NC(=O)CSc2nc3n[nH]c(C)c3c(=N)n2-c2cccc(OC)c2)cc1,–,active: 10.3 µM
CN(Cc1ccccc1)C(=O)c1ncn(C)c1C(=O)N(C)Cc1ccccc1,–,"inconclusive: 29.1 µM [activator, single point]"
CN1CCN(c2ccc(NC(=O)c3ccc(-c4cccc([N+](=O)[O-])c4)o3)cc2)CC1,–,"inconclusive: 13 µM [activator, partial curve, poor fit]"
COC(=O)c1sc2ccccc2c1N,–,"inconclusive: 23.1 µM [activator, partial curve]"
COc1ccc(C(=O)NC(=O)COC(=O)CCS(=O)(=O)c2ccc(C)cc2)cc1,inactive: 16.4%,–
CC(NC(=O)CNC(=O)c1ccccc1F)c1ccc(-n2ccnc2)cc1 (centres undefined),–,"inconclusive: 29.1 µM [activator, single point]"
CCOc1ccc(NC(=O)C2CCN(c3nnnn3-c3ccccc3)CC2)cc1,–,"inconclusive: 32.6 µM [inhibitor, single point]"
Cc1cc(C(=O)N/N=C/c2cc(Br)ccc2OC(=O)c2ccccc2Cl)n[nH]1,–,"inconclusive: 23.1 µM [inhibitor, partial curve, poor fit]"
Cc1ccsc1/C=N/Nc1nc(Cl)c(Cl)cc1Cl,–,"inconclusive: 13 µM [activator, partial curve]"
